Data source: PubChem BioAssay AID1671195 (Yale University, 2021)
Aim: 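Knockdowns that increase or decrease uptake of fluorescent LDL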 (primary screen). System: human Huh7 hepatoma cells. Reagents: siRNA pool against human genes, 18 nM. Duration: about 2 to 2.5 days of knockdown, then 8 h LDL uptake. Challenge: DiI-labelled LDL at 30 µg/ml for 8 h, in lipoprotein-deficient serum medium. Measured: 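Per-cell DiI-LDL intensity by automated imaging; well means scaled to the plate median and given as a robust z-score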. Reading the numbers: robust z-score: higher = more LDL uptake after knockdown. Hit rule: 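Active when two or more replicates show a robust z-score above 2 or below -2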.
This is an unselected part of about 22,000 deposited reagents. Over the whole deposit, about 1,510 (6.9%) are marked active. 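Active includes knockdowns raising or lowering LDL uptake; positive z-scores mean more uptake, negative mean less.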

LOC402031 (retired record) — robust z-score, replicate 1 = -0.871; robust z-score, replicate 2 = 0.175; robust z-score, replicate 3 = 0.882; call = inactive
LOC391025 (retired record) — robust z-score, replicate 1 = -1.21; robust z-score, replicate 2 = -1.12; robust z-score, replicate 3 = -0.863; call = inactive
CCDC28B — robust z-score, replicate 1 = -0.0724; robust z-score, replicate 2 = 0.485; robust z-score, replicate 3 = 0.429; call = inactive
BORCS6 — robust z-score, replicate 1 = 0.01; robust z-score, replicate 2 = -0.493; robust z-score, replicate 3 = -0.182; call = inactive
NIT2 — robust z-score, replicate 1 = -0.063; robust z-score, replicate 2 = -0.0629; robust z-score, replicate 3 = 0.183; call = inactive
LOC390427 (retired record) — robust z-score, replicate 1 = -1.37; robust z-score, replicate 2 = -1.37; robust z-score, replicate 3 = -1.32; call = inactive
LOC442003 (retired record) — robust z-score, replicate 1 = -2.18; robust z-score, replicate 2 = -2.32; robust z-score, replicate 3 = -2.29; call = active
LOC387917 (retired record) — robust z-score, replicate 1 = -0.268; robust z-score, replicate 2 = -0.104; robust z-score, replicate 3 = -0.223; call = inactive
NPHP1 — robust z-score, replicate 1 = 0.198; robust z-score, replicate 2 = -0.139; robust z-score, replicate 3 = -0.286; call = inactive
ACVR2A — robust z-score, replicate 1 = 2.77; robust z-score, replicate 2 = 2.12; robust z-score, replicate 3 = 2.34; call = active
RPL10L — robust z-score, replicate 1 = 0.029; robust z-score, replicate 2 = 0.45; robust z-score, replicate 3 = -0.224; call = inactive
DNM1P46 — robust z-score, replicate 1 = 0.522; robust z-score, replicate 2 = 0.164; robust z-score, replicate 3 = -0.57; call = inactive
SLC22A8 — robust z-score, replicate 1 = 0.0563; robust z-score, replicate 2 = 0.221; robust z-score, replicate 3 = 0.812; call = inactive
ZNF839 — robust z-score, replicate 1 = -1.87; robust z-score, replicate 2 = -0.471; robust z-score, replicate 3 = 0.171; call = inactive
LHX9 — robust z-score, replicate 1 = -0.369; robust z-score, replicate 2 = 0.29; robust z-score, replicate 3 = -0.52; call = inactive
PRMT7 — robust z-score, replicate 1 = 0.65; robust z-score, replicate 2 = 1.09; robust z-score, replicate 3 = 1.2; call = inactive
DIDO1 — robust z-score, replicate 1 = 0.341; robust z-score, replicate 2 = 0.27; robust z-score, replicate 3 = 0.262; call = inactive
HIF1A — robust z-score, replicate 1 = 0.305; robust z-score, replicate 2 = 1.6; robust z-score, replicate 3 = 0.0455; call = inactive
ESRRB — robust z-score, replicate 1 = -0.147; robust z-score, replicate 2 = -0.161; robust z-score, replicate 3 = -0.32; call = inactive
VPS37C — robust z-score, replicate 1 = -1.08; robust z-score, replicate 2 = -2.16; robust z-score, replicate 3 = -0.261; call = inactive
ASPHD1 — robust z-score, replicate 1 = 0.526; robust z-score, replicate 2 = 0.539; robust z-score, replicate 3 = 0.635; call = inactive
COX7A1 — robust z-score, replicate 1 = 0.47; robust z-score, replicate 2 = 0.43; robust z-score, replicate 3 = 0.111; call = inactive
ZNRF3 — robust z-score, replicate 1 = -1.21; robust z-score, replicate 2 = -1.15; robust z-score, replicate 3 = -1.16; call = inactive
SPAM1 — robust z-score, replicate 1 = 0.534; robust z-score, replicate 2 = -0.0398; robust z-score, replicate 3 = 0.316; call = inactive
NPPA — robust z-score, replicate 1 = 0.638; robust z-score, replicate 2 = -0.365; robust z-score, replicate 3 = 0.611; call = inactive
CRYGC — robust z-score, replicate 1 = -0.197; robust z-score, replicate 2 = 0.532; robust z-score, replicate 3 = -0.111; call = inactive
RANBP17 — robust z-score, replicate 1 = 1.1; robust z-score, replicate 2 = 1.53; robust z-score, replicate 3 = 1.54; call = inactive
HS6ST3 — robust z-score, replicate 1 = 0.28; robust z-score, replicate 2 = -0.402; robust z-score, replicate 3 = 0.201; call = inactive
CHP1 — robust z-score, replicate 1 = -1.83; robust z-score, replicate 2 = -1.64; robust z-score, replicate 3 = -1.57; call = inactive
ZFP36L1 — robust z-score, replicate 1 = 2.45; robust z-score, replicate 2 = 2.07; robust z-score, replicate 3 = 2.47; call = active

Limited to “robust z-score, replicate 2” (4 entries from above):
CRYGC: 0.532
RANBP17: 1.53
HS6ST3: -0.402
CHP1: -1.64
